The values that follow come from PubChem BioAssay AID1259416 (Broad Institute, 2018).

The entries are a selection whose mix differs from that of the whole data set. Calls of active or inactive are those of the source. Rule as the data show it: active = activity change below about -70% (passing the limit was not always enough); inconclusive = no clear call, values can overlap the other calls.

This assay is described as follows: T. gondii growth inhibition with IFN-gamma, primary screen, cell-based (AID 1259416).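 Also: host cells are HeLa cells infected with Toxoplasma gondii.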 As to conditions: Toxoplasma gondii growth in IFN-gamma-treated host cells; hits give low values; concentration not given here.
`O=C1NC(=O)c2c1c(-c1ccccc1)cc1[nH]c3ccc(O)cc3c21`: the activity change, negative = inhibition was active: -82.9%.
